Measured values reported in the supplement of paper PMC12819154, “High-throughput peptide-centric local stability assay extends protein–ligand identification to membrane proteins, tissues and bacteria” (Nature Structural & Molecular Biology, 2025).
Some of the results follow. Most values lie at the level of the controls, where differences are scatter.

By UniProt entry, the sequences of proteins in these tests, tags left out. Where a name states a change or a piece, a line headed by the entry shows the natural chain unless it says otherwise.
UniProt Q6ZQ38, whole entry: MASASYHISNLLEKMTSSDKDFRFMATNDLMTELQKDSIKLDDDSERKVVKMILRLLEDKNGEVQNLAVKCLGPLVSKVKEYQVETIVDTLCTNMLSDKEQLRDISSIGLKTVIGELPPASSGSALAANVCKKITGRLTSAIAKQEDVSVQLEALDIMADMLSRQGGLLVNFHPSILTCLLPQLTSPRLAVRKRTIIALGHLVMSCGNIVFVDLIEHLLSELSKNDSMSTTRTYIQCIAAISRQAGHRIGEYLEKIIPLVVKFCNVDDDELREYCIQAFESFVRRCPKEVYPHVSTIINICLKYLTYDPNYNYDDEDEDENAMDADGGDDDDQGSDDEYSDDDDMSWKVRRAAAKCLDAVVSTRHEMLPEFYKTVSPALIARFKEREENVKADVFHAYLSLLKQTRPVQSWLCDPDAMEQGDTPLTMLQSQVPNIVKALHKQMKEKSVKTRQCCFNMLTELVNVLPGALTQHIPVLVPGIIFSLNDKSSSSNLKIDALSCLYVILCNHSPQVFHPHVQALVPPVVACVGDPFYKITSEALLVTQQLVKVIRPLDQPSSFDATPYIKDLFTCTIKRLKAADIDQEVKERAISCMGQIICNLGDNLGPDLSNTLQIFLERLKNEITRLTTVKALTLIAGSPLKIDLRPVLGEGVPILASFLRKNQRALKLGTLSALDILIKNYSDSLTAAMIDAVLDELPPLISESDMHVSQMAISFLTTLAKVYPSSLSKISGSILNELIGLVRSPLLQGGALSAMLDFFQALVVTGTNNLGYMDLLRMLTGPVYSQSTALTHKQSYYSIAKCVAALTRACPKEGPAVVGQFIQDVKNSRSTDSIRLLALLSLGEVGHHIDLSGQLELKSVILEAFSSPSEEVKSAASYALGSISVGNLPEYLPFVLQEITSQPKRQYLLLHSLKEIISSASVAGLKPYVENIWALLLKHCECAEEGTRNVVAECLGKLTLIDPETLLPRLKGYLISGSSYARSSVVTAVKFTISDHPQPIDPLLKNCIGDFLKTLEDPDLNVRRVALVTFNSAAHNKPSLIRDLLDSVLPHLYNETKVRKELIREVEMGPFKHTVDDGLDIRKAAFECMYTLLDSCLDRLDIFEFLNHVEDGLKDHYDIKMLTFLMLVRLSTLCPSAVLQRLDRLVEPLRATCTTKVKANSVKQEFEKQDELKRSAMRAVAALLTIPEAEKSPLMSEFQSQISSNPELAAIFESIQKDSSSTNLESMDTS
UniProt Q7TPD2: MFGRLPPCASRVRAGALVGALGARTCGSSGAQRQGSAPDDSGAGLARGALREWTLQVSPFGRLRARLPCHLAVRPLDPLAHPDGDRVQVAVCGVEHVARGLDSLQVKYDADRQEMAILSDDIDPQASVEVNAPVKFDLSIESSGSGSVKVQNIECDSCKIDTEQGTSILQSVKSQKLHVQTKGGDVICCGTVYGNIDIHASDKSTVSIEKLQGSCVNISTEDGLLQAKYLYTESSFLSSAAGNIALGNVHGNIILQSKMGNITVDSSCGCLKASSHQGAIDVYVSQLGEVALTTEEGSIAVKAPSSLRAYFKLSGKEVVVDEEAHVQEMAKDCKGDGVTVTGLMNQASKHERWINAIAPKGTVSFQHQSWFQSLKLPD
UniProt Q7TSF4: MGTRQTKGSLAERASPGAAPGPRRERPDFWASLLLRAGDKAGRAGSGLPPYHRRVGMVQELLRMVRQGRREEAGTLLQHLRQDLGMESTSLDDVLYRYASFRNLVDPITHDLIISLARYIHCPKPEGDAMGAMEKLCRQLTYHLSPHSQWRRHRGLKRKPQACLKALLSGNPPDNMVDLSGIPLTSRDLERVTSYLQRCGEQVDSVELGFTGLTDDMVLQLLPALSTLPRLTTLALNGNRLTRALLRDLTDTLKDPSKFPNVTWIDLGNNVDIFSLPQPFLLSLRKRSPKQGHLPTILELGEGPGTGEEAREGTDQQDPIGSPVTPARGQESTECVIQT
UniProt Q7TQG0: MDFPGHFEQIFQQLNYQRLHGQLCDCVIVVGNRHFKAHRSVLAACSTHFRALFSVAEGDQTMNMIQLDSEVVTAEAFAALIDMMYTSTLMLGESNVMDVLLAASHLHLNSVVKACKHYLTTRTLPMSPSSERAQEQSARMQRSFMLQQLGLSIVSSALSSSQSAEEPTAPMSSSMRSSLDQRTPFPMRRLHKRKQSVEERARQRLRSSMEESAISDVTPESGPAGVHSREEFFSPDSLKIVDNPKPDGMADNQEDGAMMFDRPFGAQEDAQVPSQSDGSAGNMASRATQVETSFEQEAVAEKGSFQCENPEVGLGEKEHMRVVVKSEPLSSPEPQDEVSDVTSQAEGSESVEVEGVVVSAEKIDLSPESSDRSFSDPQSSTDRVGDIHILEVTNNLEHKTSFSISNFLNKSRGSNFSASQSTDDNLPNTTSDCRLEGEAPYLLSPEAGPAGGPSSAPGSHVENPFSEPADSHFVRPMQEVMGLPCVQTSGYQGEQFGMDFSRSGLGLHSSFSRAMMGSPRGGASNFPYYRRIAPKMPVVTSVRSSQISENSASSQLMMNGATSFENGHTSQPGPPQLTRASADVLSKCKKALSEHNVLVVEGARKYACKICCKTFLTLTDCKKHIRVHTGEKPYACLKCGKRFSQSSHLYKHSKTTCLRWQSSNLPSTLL
UniProt Q70IV5: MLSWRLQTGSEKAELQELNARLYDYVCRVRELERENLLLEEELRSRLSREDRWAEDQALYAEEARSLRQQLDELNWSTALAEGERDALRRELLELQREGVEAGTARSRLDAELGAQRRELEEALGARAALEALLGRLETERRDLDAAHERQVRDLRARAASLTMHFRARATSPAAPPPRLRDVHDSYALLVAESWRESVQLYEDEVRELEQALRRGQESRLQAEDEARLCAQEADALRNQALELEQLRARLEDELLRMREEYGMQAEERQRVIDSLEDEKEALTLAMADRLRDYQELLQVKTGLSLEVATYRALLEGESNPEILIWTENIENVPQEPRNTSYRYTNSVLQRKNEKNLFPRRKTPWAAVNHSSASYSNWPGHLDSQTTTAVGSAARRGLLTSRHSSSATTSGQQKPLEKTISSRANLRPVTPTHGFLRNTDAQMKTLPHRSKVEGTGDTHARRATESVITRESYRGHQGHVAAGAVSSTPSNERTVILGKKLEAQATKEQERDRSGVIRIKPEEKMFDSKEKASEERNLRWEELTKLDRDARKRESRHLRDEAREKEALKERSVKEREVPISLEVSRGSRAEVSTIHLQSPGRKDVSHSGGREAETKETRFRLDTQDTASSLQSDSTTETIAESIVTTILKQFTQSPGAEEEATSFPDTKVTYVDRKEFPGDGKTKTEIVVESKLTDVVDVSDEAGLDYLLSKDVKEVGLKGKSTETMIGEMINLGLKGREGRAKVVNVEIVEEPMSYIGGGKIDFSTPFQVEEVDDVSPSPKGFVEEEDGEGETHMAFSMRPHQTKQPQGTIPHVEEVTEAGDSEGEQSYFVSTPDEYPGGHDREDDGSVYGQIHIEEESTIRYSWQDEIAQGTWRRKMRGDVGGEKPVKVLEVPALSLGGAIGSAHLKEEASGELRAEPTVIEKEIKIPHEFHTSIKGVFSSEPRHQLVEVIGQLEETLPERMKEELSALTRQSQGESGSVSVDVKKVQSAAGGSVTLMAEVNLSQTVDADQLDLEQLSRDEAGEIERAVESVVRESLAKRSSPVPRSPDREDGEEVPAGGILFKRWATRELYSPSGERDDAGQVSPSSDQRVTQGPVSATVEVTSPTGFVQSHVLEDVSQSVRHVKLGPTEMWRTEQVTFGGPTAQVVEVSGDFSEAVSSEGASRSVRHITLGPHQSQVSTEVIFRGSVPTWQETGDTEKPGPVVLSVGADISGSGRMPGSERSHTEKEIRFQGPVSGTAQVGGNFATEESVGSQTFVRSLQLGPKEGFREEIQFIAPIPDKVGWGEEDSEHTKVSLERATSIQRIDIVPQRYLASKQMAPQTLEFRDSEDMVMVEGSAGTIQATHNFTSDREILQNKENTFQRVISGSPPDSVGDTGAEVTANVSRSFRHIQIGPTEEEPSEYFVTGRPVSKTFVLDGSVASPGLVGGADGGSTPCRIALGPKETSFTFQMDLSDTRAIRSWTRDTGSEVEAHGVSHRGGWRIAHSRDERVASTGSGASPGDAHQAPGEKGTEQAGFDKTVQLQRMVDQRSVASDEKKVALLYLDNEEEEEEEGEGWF
UniProt Q6ZPY2: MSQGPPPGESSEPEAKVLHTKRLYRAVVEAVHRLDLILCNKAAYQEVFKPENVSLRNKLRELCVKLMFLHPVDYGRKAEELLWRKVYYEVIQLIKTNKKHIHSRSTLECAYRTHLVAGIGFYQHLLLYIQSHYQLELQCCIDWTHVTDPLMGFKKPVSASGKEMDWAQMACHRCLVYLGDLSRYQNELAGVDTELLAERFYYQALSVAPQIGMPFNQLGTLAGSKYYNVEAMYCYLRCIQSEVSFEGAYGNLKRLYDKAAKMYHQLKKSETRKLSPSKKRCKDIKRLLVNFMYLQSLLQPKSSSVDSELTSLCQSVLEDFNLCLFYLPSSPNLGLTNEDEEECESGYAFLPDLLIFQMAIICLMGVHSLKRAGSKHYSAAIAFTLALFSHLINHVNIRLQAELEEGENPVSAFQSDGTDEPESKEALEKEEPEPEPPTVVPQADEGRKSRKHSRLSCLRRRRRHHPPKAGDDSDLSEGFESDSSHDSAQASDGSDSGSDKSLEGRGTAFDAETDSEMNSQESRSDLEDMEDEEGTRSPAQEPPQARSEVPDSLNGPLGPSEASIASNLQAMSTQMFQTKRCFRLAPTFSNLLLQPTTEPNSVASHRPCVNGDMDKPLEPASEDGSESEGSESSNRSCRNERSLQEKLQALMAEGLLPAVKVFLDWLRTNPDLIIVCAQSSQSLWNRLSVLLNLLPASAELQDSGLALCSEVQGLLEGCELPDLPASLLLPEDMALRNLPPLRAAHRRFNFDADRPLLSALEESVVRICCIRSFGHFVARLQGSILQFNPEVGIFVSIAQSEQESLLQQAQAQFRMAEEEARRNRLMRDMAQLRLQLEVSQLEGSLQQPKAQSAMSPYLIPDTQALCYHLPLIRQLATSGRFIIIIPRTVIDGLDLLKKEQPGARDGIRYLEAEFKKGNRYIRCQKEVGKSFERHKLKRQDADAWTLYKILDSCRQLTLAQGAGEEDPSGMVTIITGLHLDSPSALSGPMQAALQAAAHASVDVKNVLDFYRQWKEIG
UniProt Q6ZPQ6: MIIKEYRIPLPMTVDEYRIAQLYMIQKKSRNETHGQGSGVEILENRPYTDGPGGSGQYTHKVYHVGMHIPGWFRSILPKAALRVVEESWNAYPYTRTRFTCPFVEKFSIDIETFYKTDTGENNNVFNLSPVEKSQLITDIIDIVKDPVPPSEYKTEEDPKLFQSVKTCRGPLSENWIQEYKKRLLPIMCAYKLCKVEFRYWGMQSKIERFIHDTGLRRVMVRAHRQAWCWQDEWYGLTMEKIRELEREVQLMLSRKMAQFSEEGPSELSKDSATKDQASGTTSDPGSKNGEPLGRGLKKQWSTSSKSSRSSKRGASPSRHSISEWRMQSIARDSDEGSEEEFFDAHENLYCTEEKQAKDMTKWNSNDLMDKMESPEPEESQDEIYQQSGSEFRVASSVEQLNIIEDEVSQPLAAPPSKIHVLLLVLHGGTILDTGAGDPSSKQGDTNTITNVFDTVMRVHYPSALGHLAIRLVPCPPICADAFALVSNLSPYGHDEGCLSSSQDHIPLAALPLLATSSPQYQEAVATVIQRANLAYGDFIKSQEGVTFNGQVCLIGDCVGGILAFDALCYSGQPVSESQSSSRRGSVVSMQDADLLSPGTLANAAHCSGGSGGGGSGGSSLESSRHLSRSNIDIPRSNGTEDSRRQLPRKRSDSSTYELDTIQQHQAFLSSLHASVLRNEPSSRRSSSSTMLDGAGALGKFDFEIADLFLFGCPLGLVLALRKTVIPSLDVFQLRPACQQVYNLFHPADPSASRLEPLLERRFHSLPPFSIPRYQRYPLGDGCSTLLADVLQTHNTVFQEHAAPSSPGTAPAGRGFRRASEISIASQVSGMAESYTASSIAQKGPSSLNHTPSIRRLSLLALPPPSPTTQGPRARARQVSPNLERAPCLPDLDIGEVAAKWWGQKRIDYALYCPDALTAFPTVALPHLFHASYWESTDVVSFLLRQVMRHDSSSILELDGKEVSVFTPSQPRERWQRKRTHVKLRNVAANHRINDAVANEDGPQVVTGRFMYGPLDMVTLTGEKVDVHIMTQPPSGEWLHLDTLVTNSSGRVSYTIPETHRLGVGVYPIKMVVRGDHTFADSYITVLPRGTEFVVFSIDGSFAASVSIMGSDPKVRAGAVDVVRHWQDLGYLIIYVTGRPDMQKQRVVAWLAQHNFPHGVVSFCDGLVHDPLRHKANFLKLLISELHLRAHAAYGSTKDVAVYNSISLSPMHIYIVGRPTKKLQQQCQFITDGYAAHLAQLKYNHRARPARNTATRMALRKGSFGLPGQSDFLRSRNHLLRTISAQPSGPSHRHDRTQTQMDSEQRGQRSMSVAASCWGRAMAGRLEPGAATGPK

Compound: CN[C@@H]1C[C@H]2O[C@@](C)([C@@H]1OC)n1c3ccccc3c3c4c(c5c6ccccc6n2c5c31)C(=O)NC4 [staurosporine]
Experiment: log2 fold change of tryptic peptide abundance, ligand vs vehicle (limited proteolysis) (log2 ratio); higher = more trypsin-susceptible (destabilized)
Conditions: ligand concentration: 20 uM; sample: mouse liver crude lysate; replicate design: treated separately

Target	log2 fold change
UniProt Q80TF4 (peptide sequence: TAVDTVFR, peptide start residue: 364)	0.207
UniProt Q7TS72 (peptide sequence: KADGTCNTNFK, peptide start residue: 554)	1.21
UniProt Q80TL7 (peptide sequence: RYLLQPLGDFSR, peptide start residue: 1128)	-0.596
UniProt Q7TN60 (peptide sequence: LHSVYEEEGR, peptide start residue: 770)	-0.207
UniProt Q80U04 (peptide sequence: RQDDTDQGR, peptide start residue: 268)	-0.767
UniProt Q7TQH7 (peptide sequence: QDMTPGGTSGGR, peptide start residue: 535)	0.131
UniProt Q7TMI3 (peptide sequence: VQVSEAGVHRPHVGGIHGR, peptide start residue: 464)	-0.333
UniProt Q6ZQ08 (peptide sequence: CPVVLAPLLYPEKR, peptide start residue: 219)	-0.738
UniProt Q80U58 (peptide sequence: GLPNGMDADCK, peptide start residue: 159)	0.317
UniProt Q7TQH0 (peptide sequence: EEGPVTEQVKK, peptide start residue: 649)	-0.534
UniProt Q7TQD2 (peptide sequence: DCHVIDGK, peptide start residue: 81)	-0.219
UniProt Q6ZPU9 (peptide sequence: KGEIARCWIK, peptide start residue: 303)	0.317
UniProt Q6ZQ12 (peptide sequence: ELYVENAHLMK, peptide start residue: 1344)	0.0337
UniProt Q75N62 (peptide sequence: SAFFSQLR, peptide start residue: 499)	-0.356
UniProt Q80V86 (peptide sequence: TIVQSSFPVK, peptide start residue: 153)	0.466
UniProt Q6WKZ7 (peptide sequence: STEKLEKEDESYYQK, peptide start residue: 176)	-0.39
UniProt Q6ZQ38 (peptide sequence: CLGPLVSK, peptide start residue: 71)	-0.244
UniProt Q7TPD2 (peptide sequence: QGSAPDDSGAGLAR, peptide start residue: 34)	0.0519
UniProt Q7TQK0 (peptide sequence: LPLTNSDRPEK, peptide start residue: 483)	0.38
UniProt Q78YZ6 (peptide sequence: VDAVKEENLK, peptide start residue: 84)	0.0189

Target	log2 fold change
UniProt Q80TG1 (peptide sequence: LVRPSSIVPLSK, peptide start residue: 601)	0.643
UniProt Q80TQ5 (peptide sequence: LDEDASPLHPTSSQQK, peptide start residue: 308)	0.578
UniProt Q80UU1 (peptide sequence: GTAQGLQDAHGR, peptide start residue: 267)	-0.244
UniProt Q80U95 (peptide sequence: DACLGIIK, peptide start residue: 551)	-0.268
UniProt Q6Y685 (peptide sequence: TIAQMIEDEQR, peptide start residue: 617)	-0.171
UniProt Q76LS9 (peptide sequence: WIPWKGER, peptide start residue: 118)	0.161
UniProt Q7TSF4 (peptide sequence: REEAGTLLQHLR, peptide start residue: 70)	-0.281
UniProt Q80V72 (peptide sequence: ELLGPVLK, peptide start residue: 324)	-0.417
UniProt Q7TQG0 (peptide sequence: SFSDPQSSTDR, peptide start residue: 373)	-0.185
UniProt Q7TQC7 (peptide sequence: MAVDLPQDVSSK, peptide start residue: 166)	0.28
UniProt Q711T7 (peptide sequence: VDLVTMATSK, peptide start residue: 213)	-0.464
UniProt Q70IV5 (peptide sequence: AEVSTIHLQSPGRK, peptide start residue: 590)	-0.0851
UniProt Q6ZPY2 (peptide sequence: NVLDFYR, peptide start residue: 1005)	-0.179
UniProt Q7TSH6 (peptide sequence: GCAYIVMVHR, peptide start residue: 605)	0.319
UniProt Q6ZPQ6 (peptide sequence: TISAQPSGPSHRHDR, peptide start residue: 1282)	-0.636
UniProt Q80U19 (peptide sequence: ELSVIDGR, peptide start residue: 683)	-0.208
UniProt Q6ZQK5 (peptide sequence: SLGVHFSK, peptide start residue: 443)	0.132
UniProt Q71B07 (peptide sequence: EDVKLEK, peptide start residue: 24)	-0.122
UniProt Q7TNE3 (peptide sequence: LRQSGEELPTTS, peptide start residue: 216)	0.126
UniProt Q7TQJ8 (peptide sequence: SYHPGCFR, peptide start residue: 547)	-0.862

Pulled one by one from the entries so far, three records:
Target	log2 fold change
UniProt Q7TN60 (peptide sequence: LHSVYEEEGR, peptide start residue: 770)	-0.207
UniProt Q6ZQK5 (peptide sequence: SLGVHFSK, peptide start residue: 443)	0.132
UniProt Q7TQD2 (peptide sequence: DCHVIDGK, peptide start residue: 81)	-0.219
